PubChem BioAssay AID1508588 | Peter MacCallum Cancer Centre | 2020
Shown is an unselected part of about 18,000 deposited reagents. Over the whole deposit, 790 (4.4%) got an active call. 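Calls rest on a combination of fold-change classes in drug and vehicle arms, not all shown here.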 A number with no mark means an inactive call.

Purpose: 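Genome-wide search for knock-downs that heighten vemurafenib action in melanoma cells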 (primary screen)
Cell system: human WM266.4 melanoma cells (BRAF V600 mutant)
Reagent: siRNA pool against human genes, 40 nM
Duration: 96 h from transfection to read-out
Treatment: vemurafenib 300 nM (about IC25), added 48 h after transfection, for 48 h; comparison arm got DMSO vehicle only
Measured: 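Ratios to non-targeting siRNA for cell gain, counted as DAPI nuclei after minus before drug and averaged over two replicates, and for absorbance-read medium lactate per cell; both binned into fold-change classes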
Reading the numbers: cell gain with vemurafenib: higher = more cell gain than with non-targeting siRNA; lactate per cell with vemurafenib: higher = more lactate made per cell
Active means: 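Enhancement is called by pairing each knock-down's vehicle-arm and drug-arm fold-change classes for viability or glycolysis; which class combinations qualify is not given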
Calls: active = enhances vemurafenib effect; inactive = no enhancement seen

gene	cell gain with vemurafenib	lactate per cell with vemurafenib
PTGDS	0.51	2
CLP1	0.21	1.4
COMMD4	0.85	0.39
AFG2B	0.86	1.27
OR8D2	0.27	0.55
DDX12P	0.36	0.92
VMA12	0.49	1.04
KLHL42	0.46	1.29
PENK	-0.01 (active)	0.14
ADAM12	0.72	0.56
OVCH1	0.69	0.32
MRPL9	0.37 (active)	0.34
CPA4	0.68	0.9
ANO6	0.65	0.54
PRG4	0.59	1.48
SPNS3	0.44	0.97
OR4F17	1.24	0.56
ZNF141	0.25	1.08
GPRIN2	0.88	1.08
CXorf38	0.75	1.12
MRPL23	0.29	1.02
FNDC4	0.34	1.7
AGBL4	0.8	0.54
PIDD1	0.81	0.4
PMM1	0.27	2
AARD	0.96	0.42
APOC2	0.52	1.42
GOLIM4	0.87	1
GEMIN7	0.19	2.3
ELOVL7	0.66	0.84
DDX41	0.46	1.43
SIM1	0.92	0.76
DDX1	0.28	1.25
MITF	0.26	1.84
BAP1	0.81	0.6
IQUB	0.75	1.01
SERINC4	0.48	1.4
CBLL2	1.18	0.78
ANO8	0.18	0.73
MIGA2	0.87	1.54
SLC5A8	0.93	0.78
EXOC3L2	0.63	1.21
DNAI3	0.68	0.93
CSNK2A1	1.12	0.58
PDCD2	-0.04	0.84
SPEM2	0.64	1.02
SLC22A25	0.41	1.12
DTNA	-0.02	1.89
G6PC3	0.48	0.62
LRRC43	0.57	0.62
NLRP5	0.28	0.55
KIAA1328	0.97	0.88
UIMC1	0.56	1.13
ESX1	0.59	0.7
TRADD	0.4	1.27
BICRA	1.05	0.42
C22orf39	0.57	0.68
